Source: PubChem BioAssay AID2685 (National Center for Advancing Translational Sciences (NCATS), 2010)
This is one part of the list. The main result of the screen is listed elsewhere. These columns were measured beside it and carry no call. Compounds called inactive in the main read-out are mostly missing here. Words in brackets tell the shape of the fitted curve; partial curves, single points and poor fits give uncertain potencies.

Assay: qHTS Assay for Lipid Storage Modulators in Drosophila S3 Cells;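 on cell number change: cells counted by Cell Tracker Red CMTPX staining in the red channel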
Settings: BODIPY lipid droplet fluorescence, 18-24 h; for cell number change: measured here: cell count max response, cells fed with added oleic acid
In short: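 Drosophila S3 cells loaded with oleic acid (400 uM, as added) and compounds at several concentrations; lipid droplets imaged by 488-nm laser-scanning cytometry, 500–530 nm intensity and object ratio to cell channel. Percent activity normalized to 20 uM Triacsin C.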

[1] = measured here: cell number channel AC50, cells fed with added oleic acid
[2] = measured here: lipid fluorescence (Fed channel) AC50, cells fed with added oleic acid

Structure (SMILES) | cell number change | AC50 [1] | AC50 [2]
CCN(CC)CCNC(=O)C(=O)NCC1OCCN1S(=O)(=O)c1ccc2c(c1)OCCO2 (configuration not stated) | -69.6% | 29.1 µM [falling, single point] | 29.1 µM [falling, partial curve, poor fit]
COc1ccc2nc(SCC(=O)NCCc3ccccc3)[nH]c2c1 | -2.87% | – | 13 µM [falling, partial curve, poor fit]
CCCC(=O)Nc1cc(=O)n(C)c(=O)n1C | 12.4% | – | –
O=C(CCCOc1ccc(Cl)cc1Cl)N1CCN(c2ccccn2)CC1 | -18.8% | – | 0.13 µM [rising, full curve, poor fit]
COC(=O)c1sccc1NS(=O)(=O)c1ccc(OC)cc1 | 24.5% | 0.00411 µM [rising, full curve, poor fit] | –
O=C1c2ccccc2C(Nc2ccc(S(=O)(=O)N3CCCCCC3)cc2)N1c1ccccn1 (configuration not stated) | -35.9% | 29.1 µM [falling, single point] | 2.31 µM [rising, single point]
O=C(NC(c1ccccc1)c1ccccc1)c1ccc(=O)[nH]n1 | -22.1% | 4.11 µM [falling, full curve, poor fit] | 3.66 µM [falling, single point]
Cc1ccsc1C(=O)N1CC=C(c2ccccc2)CC1 | – | 6.51 µM [rising, single point] | –
COc1ccc(N2CCN(C(=O)COC(=O)CCOc3ccccc3C)CC2)cc1 | 10.2% | – | 0.291 µM [falling, single point]
COc1ccc(NC(C)=O)cc1NC(=O)CN1CCN(C2c3ccccc3-c3ccccc32)CC1 | -35.4% | 3.26 µM [falling, partial curve] | 16.4 µM [falling, single point]
CSc1cccc(NC(=O)COc2ccccc2)c1 | 35.9% | 10.3 µM [rising, single point] | –
COc1ccc(-c2csc(NC(=O)CN3C(=O)C4CCCCC4C3=O)n2)cc1OC (configuration not stated) | 1.53% | 7.31 µM [rising, single point] | –
COc1ccc(NC(=O)COc2ccccc2C)cc1S(=O)(=O)N1CCCCC1 | – | 3.66 µM [rising, partial curve] | –
CCOC(=O)CSc1nc(-c2cccs2)nc2c1c(=O)n(C)c(=O)n2C | 17.3% | – | 6.51 µM [falling, single point]
Cc1cc(C)nc(SCCn2c(N3CCCCC3)nc3c2c(=O)n(C)c(=O)n3C)n1 | 16.6% | – | 6.51 µM [rising, single point]
CC1(c2ccccc2)CC(C)(C)N(C(=O)C2CCCO2)c2ccccc21 (configuration not stated) | 135% | 16.4 µM [rising, partial curve] | 6.51 µM [rising, partial curve, poor fit]
CC1(c2ccccc2)CC(C)(C)N(C(N)=O)c2ccccc21 (configuration not stated) | -14.8% | – | –
Cc1noc(C)c1COc1ccccc1C(=O)NNC(=O)c1ccccc1F | -2.48% | – | 0.206 µM [rising, full curve, poor fit]
O=C(COC(=O)c1cccnc1Cl)NCc1ccco1 | -43.3% | 0.164 µM [falling, full curve] | –
CCC(C)(C)NC(=O)CN(C(=O)C(=O)Nc1ccc2c(c1)OCCO2)C(C)(C)CC | -9.26% | – | 6.51 µM [falling, single point]
CCc1nnc(NC(=O)CSc2nnc(-c3cc4ccccc4cc3O)n2CC)s1 | -9.65% | 0.0164 µM [rising, full curve, poor fit] | –
Cc1nn(CC(=O)Nc2ccc(Cl)c(S(=O)(=O)N(C)C)c2)c(C)c1[N+](=O)[O-] | – | – | 1.64 µM [falling, partial curve]
CC1CCCC(C)N1C(=O)COC(=O)Cc1ccc(F)cc1 (configuration not stated) | 3.6% | – | –
C=C[C@]1(C)C[C@H]1[C@H](NP(=O)(c1ccccc1)c1ccccc1)c1ccccc1 | -10.7% | – | –
COc1ccccc1OCC(=O)Nc1ccc(S(=O)(=O)N2CCOCC2)cc1 | -23.7% | – | 5.62 µM [rising, single point]
CC1(C)Oc2ccc(C(=O)NN)cc2NC1=O | -12.1% | – | 1.64 µM [falling, partial curve, poor fit]
O=S(=O)([O-])C(c1ccccc1)[n+]1ccccc1 (configuration not stated) | 10.2% | – | 13 µM [rising, partial curve, poor fit]
Cc1cc(C)cc(NC(=O)Nc2c(Br)cnn2C)c1 | 0.477% | – | 0.82 µM [falling, full curve, poor fit]
O=C(NC1CC(=O)c2sccc21)c1cccc(C(F)(F)F)c1 (configuration not stated) | 31.3% | 35.5 µM [rising, single point] | 17.8 µM [rising, single point]

One compound at a time, as listed above:
CC1(c2ccccc2)CC(C)(C)N(C(=O)C2CCCO2)c2ccccc21 (configuration not stated) as listed: cell number change: 135%; AC50 [1]: 16.4 µM [rising, partial curve]; AC50 [2]: 6.51 µM [rising, partial curve, poor fit]
O=C(NC(c1ccccc1)c1ccccc1)c1ccc(=O)[nH]n1 as listed: cell number change: -22.1%; AC50 [1]: 4.11 µM [falling, full curve, poor fit]; AC50 [2]: 3.66 µM [falling, single point]
